No constants are given. Whether binding was seen depends on the method and setting. For some assays here: Binding seen in cells or lysates may run through a third protein. Some results given as binding are weak or reduced against the parent protein; the word gives no strength.
Columns and labels:
[1] = biological target: T1, TNFR2 (mouse, endogenous in hindlimb muscle of C57BL/6 mice) (mouse) (UniProt P25119); test: summary of the immunoprecipitation results in ischemic mouse hindlimb
T1 sequence (looked up): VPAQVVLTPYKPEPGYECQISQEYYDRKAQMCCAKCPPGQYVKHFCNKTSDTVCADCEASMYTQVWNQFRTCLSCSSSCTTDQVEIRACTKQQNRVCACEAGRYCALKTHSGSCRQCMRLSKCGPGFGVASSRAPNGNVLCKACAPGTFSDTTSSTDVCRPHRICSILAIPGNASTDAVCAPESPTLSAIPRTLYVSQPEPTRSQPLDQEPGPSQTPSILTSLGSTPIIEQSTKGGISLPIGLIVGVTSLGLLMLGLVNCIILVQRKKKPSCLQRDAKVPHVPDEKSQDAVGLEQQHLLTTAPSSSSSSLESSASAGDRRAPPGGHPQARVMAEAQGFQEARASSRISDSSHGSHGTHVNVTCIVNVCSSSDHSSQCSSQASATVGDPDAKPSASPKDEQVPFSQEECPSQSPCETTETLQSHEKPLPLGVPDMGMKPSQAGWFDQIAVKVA

[2] = biological target: T1, TNFR2 (mouse, endogenous in hindlimb muscle of C57BL/6 mice) (mouse); test: co-immunoprecipitation from ischemic hindlimb muscle of C57BL/6 mice

B1: Bmx/Etk (mouse, endogenous) (enzyme, UniProt P97504 1-651, looked up)
chain: MESKSILEELLLKKSQQKKKMSPNNYKERLFVLTKTSLSYYEYDKMKRGSRKGSIEIKKIRCVEKVNLEEQTPVERQYPFQIVYKDGLLYVYASNEESRCQWLKALQKEIRGNPHLLIKYHSGFFVDGKFLCCQQSCKAAPGCTLWEAYADLHIAISDEKHRAPTFPERLLKIPRAVPVLKMDASSSGAILPQYDSYSKKSCGSQPTSNIRYIPREDCPDWWQVRKLKSEEDIACSNQLERNIASHSTSKMSWGFPESSSSEEEENLHAYDWFAGNISRSQSEQLLRQKGKEGAFMVRNSSQMGMYTVSLFSKAVNDKKGTVKHYHVHTNAENKLYLAENYCFDSIPKLIHYHQHNSAGMITRLRHPVSTKANKVPVSVALGSGIWELKREEITLLKELGNGQFGVVQLGQWKGQYDVAVKMIKEGAMSEDEFFQEAQTMMKLSHPKLVKFYGVCSKKYPIYIVTEYITNGCLLNYLKSHGKGLESCQLLEMCYDVCEGMAFLESHQFIHRDLAARNCLVDSDLSVKVSDFGMTRYVLDDQYVSSVGTKFPVKWSAPEVFHYFKYSSKSDVWAFGILMWEVFSLGKQPYDLYDNSEVVVKVSQGHRLYRPQLASDTIYQIMYSCWHELPEKRPTFQQLLSAIEPLREQDKP
binding [1]: binds
binding [2]: binds
